Laboratory results from PMC11324303.
Where two headings read alike, the source gives them in different places. No constants are given. Whether binding was seen depends on the method and setting. In cells and extracts the contact can be indirect. Some binding calls cover weakened binding; strength is not graded here.

Protein sequences, listed by entry. Tags and fused reporters are not part of them. Residues count along the entry.
UniProt O14786, residues 22-923: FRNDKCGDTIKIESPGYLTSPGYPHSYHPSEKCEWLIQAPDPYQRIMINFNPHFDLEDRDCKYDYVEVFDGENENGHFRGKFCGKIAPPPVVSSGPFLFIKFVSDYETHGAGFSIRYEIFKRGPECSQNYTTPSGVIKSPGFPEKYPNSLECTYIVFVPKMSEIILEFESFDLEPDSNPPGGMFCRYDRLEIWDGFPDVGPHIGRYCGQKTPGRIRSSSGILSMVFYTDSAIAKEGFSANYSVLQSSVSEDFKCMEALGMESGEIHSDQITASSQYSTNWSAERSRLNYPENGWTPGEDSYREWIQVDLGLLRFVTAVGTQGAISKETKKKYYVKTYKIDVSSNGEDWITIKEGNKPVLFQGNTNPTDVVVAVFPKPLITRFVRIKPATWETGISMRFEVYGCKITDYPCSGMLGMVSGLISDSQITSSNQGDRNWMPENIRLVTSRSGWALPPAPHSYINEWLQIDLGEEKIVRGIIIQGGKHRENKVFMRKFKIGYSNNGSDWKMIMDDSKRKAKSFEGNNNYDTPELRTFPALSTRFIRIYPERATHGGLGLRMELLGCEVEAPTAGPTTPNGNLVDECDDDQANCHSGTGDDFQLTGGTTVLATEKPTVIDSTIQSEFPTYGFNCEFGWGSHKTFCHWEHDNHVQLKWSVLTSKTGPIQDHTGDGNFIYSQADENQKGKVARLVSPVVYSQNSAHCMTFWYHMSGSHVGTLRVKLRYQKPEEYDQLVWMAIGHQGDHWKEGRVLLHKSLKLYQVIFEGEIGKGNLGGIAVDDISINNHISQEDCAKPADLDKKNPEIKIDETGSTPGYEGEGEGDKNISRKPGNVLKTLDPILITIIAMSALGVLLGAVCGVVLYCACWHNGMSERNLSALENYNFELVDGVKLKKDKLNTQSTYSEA

Columns and labels:
[1] = target: T1, SLC44A2 (human (endogenous in HASMCs)) (UniProt Q8IWA5); experiment: co-IP; HASMC lysates, cells treated with Ang II (1 μM); IP anti-SLC44A2, blot anti-NRP1 (Figure 5B); IP anti-NRP1, blot anti-SLC44A2 (Figure 5C)
T1 sequence: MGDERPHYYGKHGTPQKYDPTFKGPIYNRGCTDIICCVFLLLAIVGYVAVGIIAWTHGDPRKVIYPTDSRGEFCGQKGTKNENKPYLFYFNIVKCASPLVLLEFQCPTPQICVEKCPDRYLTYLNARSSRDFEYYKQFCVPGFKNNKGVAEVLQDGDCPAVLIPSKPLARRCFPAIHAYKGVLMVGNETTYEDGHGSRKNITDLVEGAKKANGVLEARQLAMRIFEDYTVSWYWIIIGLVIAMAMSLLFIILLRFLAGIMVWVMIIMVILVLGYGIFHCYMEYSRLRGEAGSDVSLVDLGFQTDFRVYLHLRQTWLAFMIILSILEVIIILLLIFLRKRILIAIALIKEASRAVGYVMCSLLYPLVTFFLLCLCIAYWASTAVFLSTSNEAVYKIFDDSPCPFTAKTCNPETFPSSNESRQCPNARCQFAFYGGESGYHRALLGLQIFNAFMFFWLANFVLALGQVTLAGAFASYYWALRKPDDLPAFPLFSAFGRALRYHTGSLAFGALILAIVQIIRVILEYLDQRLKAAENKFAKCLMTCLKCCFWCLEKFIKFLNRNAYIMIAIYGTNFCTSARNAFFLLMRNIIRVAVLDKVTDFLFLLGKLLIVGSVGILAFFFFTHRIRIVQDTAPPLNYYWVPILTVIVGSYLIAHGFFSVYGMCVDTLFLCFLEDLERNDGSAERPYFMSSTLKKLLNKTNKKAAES

[2] = target: T2, SLC44A2 (mouse) (mouse (endogenous in aorta)) (UniProt Q8BY89); experiment: proximity ligation; Duolink PLA on fixed, permeabilised suprarenal abdominal aortic cryosections of mice infused with saline or Ang II (Apoe-/-, Lenti-Slc44a2, Slc44a2 WT or SMKO, with or without LEN)
T2 sequence: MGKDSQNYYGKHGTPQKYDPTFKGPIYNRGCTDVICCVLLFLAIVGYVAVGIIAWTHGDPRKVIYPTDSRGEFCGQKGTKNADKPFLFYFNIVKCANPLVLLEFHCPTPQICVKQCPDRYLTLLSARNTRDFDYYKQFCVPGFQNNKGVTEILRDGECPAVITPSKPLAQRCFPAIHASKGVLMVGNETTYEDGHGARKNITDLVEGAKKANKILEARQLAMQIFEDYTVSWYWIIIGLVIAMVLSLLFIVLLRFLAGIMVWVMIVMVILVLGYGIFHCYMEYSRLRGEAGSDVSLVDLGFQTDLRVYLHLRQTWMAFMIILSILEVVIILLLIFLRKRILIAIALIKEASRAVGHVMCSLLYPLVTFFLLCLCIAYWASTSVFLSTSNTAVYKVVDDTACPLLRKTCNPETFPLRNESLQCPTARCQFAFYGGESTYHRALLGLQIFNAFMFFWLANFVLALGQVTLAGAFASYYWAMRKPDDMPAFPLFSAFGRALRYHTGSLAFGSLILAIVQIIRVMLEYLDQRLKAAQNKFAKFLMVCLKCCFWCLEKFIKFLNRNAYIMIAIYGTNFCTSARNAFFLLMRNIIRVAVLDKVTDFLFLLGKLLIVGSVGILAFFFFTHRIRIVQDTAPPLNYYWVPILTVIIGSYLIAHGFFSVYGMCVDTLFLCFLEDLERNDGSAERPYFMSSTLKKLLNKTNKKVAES

[3] = target: T2, SLC44A2 (mouse) (mouse (endogenous in aorta)); experiment: as above; remark: listed apart in the source

Question: “neuropilin-1 (NRP1) (from UniProt O14786 22-923) (receptor)” was tested. Which binding [1] did it give?
Answer: binds

Question: Which binding [2] does the source give for “NRP1 (mouse) (from UniProt P97333 22-923) (receptor)” here?
Answer: binds

B1: ITGB3 (mouse) (receptor, UniProt O54890 26-787)
chain: ESNICTTRGVNSCQQCLAVSPVCAWCSDETLSQGSPRCNLKENLLKDNCAPESIEFPVSEAQILEARPLSSKGSGSSAQITQVSPQRIALRLRPDDSKIFSLQVRQVEDYPVDIYYLMDLSFSMKDDLSSIQTLGTKLASQMRKLTSNLRIGFGAFVDKPVSPYMYISPPQAIKNPCYNMKNACLPMFGYKHVLTLTDQVSRFNEEVKKQSVSRNRDAPEGGFDAIMQATVCDEKIGWRNDASHLLVFTTDAKTHIALDGRLAGIVLPNDGHCHIGTDNHYSASTTMDYPSLGLMTEKLSQKNINLIFAVTENVVSLYQNYSELIPGTTVGVLSDDSSNVLQLIVDAYGKIRSKVELEVRDLPEELSLSFNATCLNNEVIPGLKSCVGLKIGDTVSFSIEAKVRGCPQEKEQSFTIKPVGFKDSLTVQVTFDCDCACQAFAQPSSPRCNNGNGTFECGVCRCDQGWLGSMCECSEEDYRPSQQEECSPKEGQPICSQRGECLCGQCVCHSSDFGKITGKYCECDDFSCVRYKGEMCSGHGQCNCGDCVCDSDWTGYYCNCTTRTDTCMSTNGLLCSGRGNCECGSCVCVQPGSYGDTCEKCPTCPDACSFKKECVECKKFNRGTLHEENTCSRYCRDDIEQVKELTDTGKNAVNCTYKNEDDCVVRFQYYEDTSGRAVLYVVEEPECPKGPDILVVLLSVMGAILLIGLATLLIWKLLITIHDRKEFAKFEEERARAKWDTANNPLYKEATSTFTNITYRGT
Question: B1 was tested. Which binding [3] did it give?
Answer: binds
